Experimental data published in the supplement of paper PMC10849652.
The other results are listed elsewhere or left out.

By UniProt entry, the sequences of proteins in these tests, tags left out. Where a name states a change or a piece, a line headed by the entry shows the natural chain unless it says otherwise.
UniProt P31040: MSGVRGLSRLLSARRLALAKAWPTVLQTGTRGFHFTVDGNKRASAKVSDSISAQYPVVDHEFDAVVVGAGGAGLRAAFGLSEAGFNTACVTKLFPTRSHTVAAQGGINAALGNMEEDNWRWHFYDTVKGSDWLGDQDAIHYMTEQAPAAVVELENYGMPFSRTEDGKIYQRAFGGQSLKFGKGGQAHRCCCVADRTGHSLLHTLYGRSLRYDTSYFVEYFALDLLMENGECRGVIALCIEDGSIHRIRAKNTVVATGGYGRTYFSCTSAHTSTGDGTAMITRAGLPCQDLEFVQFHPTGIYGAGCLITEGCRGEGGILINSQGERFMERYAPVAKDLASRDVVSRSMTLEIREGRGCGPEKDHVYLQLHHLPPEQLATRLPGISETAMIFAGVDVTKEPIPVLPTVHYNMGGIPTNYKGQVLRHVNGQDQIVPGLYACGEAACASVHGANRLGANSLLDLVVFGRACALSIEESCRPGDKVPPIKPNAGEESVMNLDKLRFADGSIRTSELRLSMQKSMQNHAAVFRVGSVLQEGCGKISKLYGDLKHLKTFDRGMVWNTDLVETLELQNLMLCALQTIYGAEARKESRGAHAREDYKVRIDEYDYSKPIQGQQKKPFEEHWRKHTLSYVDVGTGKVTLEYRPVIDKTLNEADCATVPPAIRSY
UniProt Q9NVA2: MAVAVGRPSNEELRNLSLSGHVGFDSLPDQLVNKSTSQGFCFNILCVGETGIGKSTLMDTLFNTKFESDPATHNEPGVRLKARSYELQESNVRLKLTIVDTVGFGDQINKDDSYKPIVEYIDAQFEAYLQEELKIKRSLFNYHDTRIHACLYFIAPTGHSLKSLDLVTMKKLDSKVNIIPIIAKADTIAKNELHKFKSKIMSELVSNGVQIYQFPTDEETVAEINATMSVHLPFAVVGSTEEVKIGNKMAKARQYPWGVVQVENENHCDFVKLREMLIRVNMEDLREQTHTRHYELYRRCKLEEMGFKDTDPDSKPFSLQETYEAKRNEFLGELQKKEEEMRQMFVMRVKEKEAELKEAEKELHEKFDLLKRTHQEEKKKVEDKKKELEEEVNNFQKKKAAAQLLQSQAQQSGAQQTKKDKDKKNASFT
UniProt Q9Y6U3: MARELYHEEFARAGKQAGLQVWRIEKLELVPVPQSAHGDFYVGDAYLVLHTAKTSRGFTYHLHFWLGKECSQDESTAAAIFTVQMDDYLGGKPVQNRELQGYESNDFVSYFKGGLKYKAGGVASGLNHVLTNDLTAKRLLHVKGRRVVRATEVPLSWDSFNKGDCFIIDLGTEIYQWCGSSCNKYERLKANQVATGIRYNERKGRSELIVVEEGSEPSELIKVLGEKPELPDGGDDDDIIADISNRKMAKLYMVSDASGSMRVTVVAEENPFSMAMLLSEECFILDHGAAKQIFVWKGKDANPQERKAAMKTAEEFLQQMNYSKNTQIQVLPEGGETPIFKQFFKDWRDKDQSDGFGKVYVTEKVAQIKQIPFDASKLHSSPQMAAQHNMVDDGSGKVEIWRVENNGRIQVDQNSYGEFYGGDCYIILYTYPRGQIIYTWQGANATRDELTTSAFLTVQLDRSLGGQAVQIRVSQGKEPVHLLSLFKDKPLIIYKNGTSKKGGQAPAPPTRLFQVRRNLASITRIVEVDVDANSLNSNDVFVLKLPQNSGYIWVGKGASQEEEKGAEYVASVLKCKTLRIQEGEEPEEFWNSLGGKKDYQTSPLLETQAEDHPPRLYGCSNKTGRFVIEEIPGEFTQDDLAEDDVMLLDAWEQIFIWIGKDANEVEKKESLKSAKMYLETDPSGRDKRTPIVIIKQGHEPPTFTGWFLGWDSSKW
UniProt O95486: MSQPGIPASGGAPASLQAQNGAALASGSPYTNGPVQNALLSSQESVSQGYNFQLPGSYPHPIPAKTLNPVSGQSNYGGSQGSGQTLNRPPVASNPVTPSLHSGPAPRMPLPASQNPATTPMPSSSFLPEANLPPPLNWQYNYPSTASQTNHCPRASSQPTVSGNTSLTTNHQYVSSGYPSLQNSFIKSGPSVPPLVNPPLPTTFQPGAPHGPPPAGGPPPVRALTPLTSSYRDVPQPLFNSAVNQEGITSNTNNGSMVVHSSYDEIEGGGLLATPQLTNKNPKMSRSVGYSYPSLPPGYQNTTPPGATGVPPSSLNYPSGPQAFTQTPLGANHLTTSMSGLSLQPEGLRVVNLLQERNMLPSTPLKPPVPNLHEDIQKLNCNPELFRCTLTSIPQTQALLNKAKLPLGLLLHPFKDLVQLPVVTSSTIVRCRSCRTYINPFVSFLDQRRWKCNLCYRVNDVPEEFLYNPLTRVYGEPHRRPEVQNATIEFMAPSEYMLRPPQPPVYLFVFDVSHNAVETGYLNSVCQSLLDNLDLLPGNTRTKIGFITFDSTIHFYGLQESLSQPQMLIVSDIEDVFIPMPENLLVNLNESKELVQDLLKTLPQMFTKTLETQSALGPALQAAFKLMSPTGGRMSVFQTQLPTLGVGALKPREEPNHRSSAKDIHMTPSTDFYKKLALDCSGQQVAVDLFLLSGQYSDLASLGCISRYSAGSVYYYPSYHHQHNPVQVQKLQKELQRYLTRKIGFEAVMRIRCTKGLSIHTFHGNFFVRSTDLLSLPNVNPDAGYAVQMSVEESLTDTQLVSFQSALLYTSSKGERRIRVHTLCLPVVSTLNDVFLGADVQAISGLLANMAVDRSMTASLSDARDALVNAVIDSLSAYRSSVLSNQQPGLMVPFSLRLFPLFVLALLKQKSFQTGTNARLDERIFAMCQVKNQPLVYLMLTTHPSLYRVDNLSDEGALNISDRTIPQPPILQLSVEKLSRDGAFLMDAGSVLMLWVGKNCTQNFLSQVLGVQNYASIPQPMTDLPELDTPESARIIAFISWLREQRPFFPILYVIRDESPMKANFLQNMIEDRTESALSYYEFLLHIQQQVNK
UniProt O14828: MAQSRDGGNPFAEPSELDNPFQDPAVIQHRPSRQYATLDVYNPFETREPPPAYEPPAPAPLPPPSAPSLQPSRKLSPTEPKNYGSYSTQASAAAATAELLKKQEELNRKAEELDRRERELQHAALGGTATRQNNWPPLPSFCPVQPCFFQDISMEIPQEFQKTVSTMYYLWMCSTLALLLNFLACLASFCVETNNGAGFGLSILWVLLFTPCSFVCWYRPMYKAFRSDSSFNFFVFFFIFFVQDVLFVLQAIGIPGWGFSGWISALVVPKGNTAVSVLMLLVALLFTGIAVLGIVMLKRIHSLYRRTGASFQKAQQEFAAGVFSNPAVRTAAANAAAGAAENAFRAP
UniProt Q14160: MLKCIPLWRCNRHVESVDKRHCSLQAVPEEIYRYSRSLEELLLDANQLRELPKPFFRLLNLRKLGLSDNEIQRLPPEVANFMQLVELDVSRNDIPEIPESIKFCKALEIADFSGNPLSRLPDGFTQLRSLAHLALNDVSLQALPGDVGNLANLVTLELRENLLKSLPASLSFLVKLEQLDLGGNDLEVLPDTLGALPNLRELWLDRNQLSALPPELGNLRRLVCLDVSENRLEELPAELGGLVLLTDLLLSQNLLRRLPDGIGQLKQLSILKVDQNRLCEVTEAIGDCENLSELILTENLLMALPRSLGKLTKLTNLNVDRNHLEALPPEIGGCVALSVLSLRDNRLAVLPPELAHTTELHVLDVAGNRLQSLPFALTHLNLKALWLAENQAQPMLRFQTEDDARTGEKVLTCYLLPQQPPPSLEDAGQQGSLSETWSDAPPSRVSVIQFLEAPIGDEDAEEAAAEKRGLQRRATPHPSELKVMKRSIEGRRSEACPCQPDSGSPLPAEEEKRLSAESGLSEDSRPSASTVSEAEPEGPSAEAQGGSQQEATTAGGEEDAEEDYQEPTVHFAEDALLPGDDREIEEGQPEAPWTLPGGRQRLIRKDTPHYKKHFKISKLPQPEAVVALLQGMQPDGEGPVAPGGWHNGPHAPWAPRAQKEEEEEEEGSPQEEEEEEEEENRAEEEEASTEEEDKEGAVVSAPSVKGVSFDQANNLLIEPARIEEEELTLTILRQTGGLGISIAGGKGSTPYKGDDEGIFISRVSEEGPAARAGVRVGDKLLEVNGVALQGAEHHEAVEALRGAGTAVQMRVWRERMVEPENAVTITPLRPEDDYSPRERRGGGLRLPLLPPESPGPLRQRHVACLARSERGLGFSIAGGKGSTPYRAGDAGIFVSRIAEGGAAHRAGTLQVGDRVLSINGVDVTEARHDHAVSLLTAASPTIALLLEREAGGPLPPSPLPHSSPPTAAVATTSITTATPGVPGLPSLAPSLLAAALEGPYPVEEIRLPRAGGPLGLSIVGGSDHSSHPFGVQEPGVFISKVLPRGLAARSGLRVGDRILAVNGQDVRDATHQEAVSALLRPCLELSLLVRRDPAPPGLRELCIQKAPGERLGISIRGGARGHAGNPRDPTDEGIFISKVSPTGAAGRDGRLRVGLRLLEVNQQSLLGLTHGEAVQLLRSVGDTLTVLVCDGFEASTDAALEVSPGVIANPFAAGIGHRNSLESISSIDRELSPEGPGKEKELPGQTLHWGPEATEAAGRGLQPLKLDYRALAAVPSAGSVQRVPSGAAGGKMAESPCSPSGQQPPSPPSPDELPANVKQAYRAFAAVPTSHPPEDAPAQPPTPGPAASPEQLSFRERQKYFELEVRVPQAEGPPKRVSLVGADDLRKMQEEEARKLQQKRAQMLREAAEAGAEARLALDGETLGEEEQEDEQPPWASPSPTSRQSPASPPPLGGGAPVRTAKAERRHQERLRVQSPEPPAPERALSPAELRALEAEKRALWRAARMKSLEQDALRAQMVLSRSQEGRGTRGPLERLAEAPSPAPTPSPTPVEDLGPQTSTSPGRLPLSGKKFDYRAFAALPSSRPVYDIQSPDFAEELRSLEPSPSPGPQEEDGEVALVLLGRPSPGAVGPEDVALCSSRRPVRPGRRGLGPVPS
UniProt Q9NRP4: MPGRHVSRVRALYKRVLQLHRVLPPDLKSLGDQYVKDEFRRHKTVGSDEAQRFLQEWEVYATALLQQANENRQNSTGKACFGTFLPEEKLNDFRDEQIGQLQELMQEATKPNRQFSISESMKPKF
UniProt Q9NR31: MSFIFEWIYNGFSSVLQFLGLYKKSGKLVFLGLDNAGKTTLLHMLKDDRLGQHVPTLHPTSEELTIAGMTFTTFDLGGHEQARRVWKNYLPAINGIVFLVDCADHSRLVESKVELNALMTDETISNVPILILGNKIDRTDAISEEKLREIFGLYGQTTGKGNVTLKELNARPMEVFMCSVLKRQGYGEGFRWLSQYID
UniProt Q8NBX0: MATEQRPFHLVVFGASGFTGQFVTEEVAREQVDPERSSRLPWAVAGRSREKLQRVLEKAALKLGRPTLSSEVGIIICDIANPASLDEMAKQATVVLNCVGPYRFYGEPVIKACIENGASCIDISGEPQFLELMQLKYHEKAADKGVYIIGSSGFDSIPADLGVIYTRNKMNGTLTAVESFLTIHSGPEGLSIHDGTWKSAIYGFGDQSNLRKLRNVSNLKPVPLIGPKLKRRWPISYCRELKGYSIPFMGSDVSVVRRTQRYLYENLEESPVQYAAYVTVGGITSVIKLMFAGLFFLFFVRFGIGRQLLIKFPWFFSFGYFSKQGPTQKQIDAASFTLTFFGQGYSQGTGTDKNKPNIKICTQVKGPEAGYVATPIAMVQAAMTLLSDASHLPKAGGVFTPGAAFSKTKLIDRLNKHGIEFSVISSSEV
UniProt O75326: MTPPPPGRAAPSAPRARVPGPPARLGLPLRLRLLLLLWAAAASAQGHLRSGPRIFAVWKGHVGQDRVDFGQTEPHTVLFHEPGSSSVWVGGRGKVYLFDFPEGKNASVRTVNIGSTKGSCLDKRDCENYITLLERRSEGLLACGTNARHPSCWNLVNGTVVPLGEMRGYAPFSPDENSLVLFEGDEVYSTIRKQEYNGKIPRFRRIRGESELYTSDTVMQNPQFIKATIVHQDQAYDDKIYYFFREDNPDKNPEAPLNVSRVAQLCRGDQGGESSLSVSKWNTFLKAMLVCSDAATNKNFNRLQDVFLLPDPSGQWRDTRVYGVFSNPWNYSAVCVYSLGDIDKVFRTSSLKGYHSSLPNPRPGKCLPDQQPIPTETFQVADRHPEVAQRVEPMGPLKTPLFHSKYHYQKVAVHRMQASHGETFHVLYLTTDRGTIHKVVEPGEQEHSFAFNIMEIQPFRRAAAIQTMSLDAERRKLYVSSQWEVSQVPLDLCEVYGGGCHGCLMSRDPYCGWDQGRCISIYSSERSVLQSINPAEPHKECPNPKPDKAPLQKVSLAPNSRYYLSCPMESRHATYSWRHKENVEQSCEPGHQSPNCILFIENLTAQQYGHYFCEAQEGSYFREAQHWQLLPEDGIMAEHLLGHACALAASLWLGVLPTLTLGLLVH
UniProt O00422: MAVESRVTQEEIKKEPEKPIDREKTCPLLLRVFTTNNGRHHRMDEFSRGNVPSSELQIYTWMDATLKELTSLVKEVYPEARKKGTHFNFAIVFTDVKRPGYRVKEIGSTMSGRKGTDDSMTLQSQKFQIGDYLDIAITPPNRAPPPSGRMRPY

What was measured:
Assay in all cases: log2 fold change, soluble protein after heating vs DMSO (PISA); higher = thermal stabilisation; K562 lysate, 10 uM; active = over 0.2 and 3.5 SD of the protein, either way, in both replicates (recomputed)
vemurafenib = compound: CCCS(=O)(=O)Nc1ccc(F)c(C(=O)c2c[nH]c3ncc(-c4ccc(Cl)cc4)cc23)c1F [vemurafenib]
How it was run: (§1)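 Quantification was by TMTpro 16plex LC-MS/MS with equalised channel sums, applied to the supernatant after 21,000xg for 90 min. Samples were crude K562 extract at 1 mg/mL protein in PBS pH 7.4 with 1 mM MgCl2, treated with 10 μM compound for 30 min, heated for 3 min across 48°C-58°C, pooled and brought to 0.5% NP-40 at 4°C. Values are log-two fold changes in thermal stability relative to solvent controls, from duplicates.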

[1] = compound: CCCS(=O)(=O)Nc1ccc(F)c(C(=O)c2c[nH]c3ncc(Cl)cc23)c1F
How it was run: as §1

barasertib = compound: CCN(CCCOc1ccc2c(Nc3cc(CC(=O)Nc4cccc(F)c4)[nH]n3)ncnc2c1)CCOP(=O)(O)O [barasertib]
How it was run: as §1

[2] = compound: CC[C@@H]1C(=O)N(C)c2cnc(Nc3ccc(C(=O)NC4CCN(C)CC4)cc3OC)nc2N1C1CCCC1
How it was run: as §1

volasertib = compound: CC[C@@H]1C(=O)N(C)c2cnc(Nc3ccc(C(=O)N[C@H]4CC[C@H](N5CCN(CC6CC6)CC5)CC4)cc3OC)nc2N1C(C)C [volasertib]
How it was run: as §1

[3] = compound: CCn1c(C(=O)N(C2CC2)C2CC2)cc2c3c(ncn3C)c(Nc3cc(C)n(C)n3)nc21
How it was run: as §1

[4] = compound: CCn1cc(-c2ccnc3[nH]c(-c4cccc(CN(C)C)c4)cc23)c(-c2ccc(NC(=O)N(C)C)cc2)n1
How it was run: as §1

[5] = compound: CN1CCC(CNc2ccc3ncc(-c4cccc(OC(F)(F)F)c4)n3n2)CC1
How it was run: as §1

saracatinib = compound: CN1CCN(CCOc2cc(OC3CCOCC3)c3c(Nc4c(Cl)ccc5c4OCO5)ncnc3c2)CC1 [saracatinib]
How it was run: as §1

sotrastaurin = compound: CN1CCN(c2nc(C3=C(c4c[nH]c5ccccc45)C(=O)NC3=O)c3ccccc3n2)CC1 [sotrastaurin]
How it was run: as §1

Measured: log2 fold change

SCFD2 (UniProt Q8WU76)
inactive: vemurafenib 0.012 | [1] 0.002 | barasertib -0.019 | [2] -0.021 | volasertib 0.015 | [3] 0.002 | [4] 0.026 | [5] 0.033 | saracatinib -0.003 | sotrastaurin 0.008

SDHA (UniProt P31040)
inactive: vemurafenib 0.042 | [1] 0.018 | barasertib -0.032 | [2] -0.004 | volasertib 0.002 | [3] -0.003 | [4] -0.022 | [5] 0.02 | saracatinib -0.02 | sotrastaurin 0.005

SEC23B (UniProt Q15437)
inactive: vemurafenib -0.016 | [1] 0.023 | barasertib 0 | [2] -0.008 | volasertib -0.005 | [3] 0.003 | [4] -0.017 | [5] 0 | saracatinib 0.019 | sotrastaurin -0.009

SCAMP1 (UniProt O15126)
inactive: vemurafenib -0.026 | [1] 0.015 | barasertib 0.006 | [2] 0.028 | volasertib 0.032 | [3] -0.071 | [4] -0.145 | [5] 0.06 | saracatinib -0.008 | sotrastaurin 0.03

SEPTIN5 (UniProt Q99719)
inactive: vemurafenib -0.004 | [1] 0.005 | barasertib -0.004 | [2] -0.003 | volasertib -0.017 | [3] 0.015 | [4] 0.022 | [5] -0.011 | saracatinib -0.043 | sotrastaurin -0.035

SEPTIN11 isoform 2 (UniProt Q9NVA2)
inactive: vemurafenib -0.004 | [1] -0.023 | barasertib -0.05 | [2] 0.018 | volasertib 0.018 | [3] -0.016 | [4] -0.009 | [5] -0.001 | saracatinib 0.001 | sotrastaurin 0.007

SCAMP2 (UniProt O15127)
inactive: vemurafenib -0.054 | [1] 0.004 | barasertib 0.057 | [2] -0.016 | volasertib -0.023 | [3] -0.067 | [4] 0.014 | [5] 0.053 | saracatinib 0.01 | sotrastaurin -0.014

SCIN (UniProt Q9Y6U3)
inactive: vemurafenib -0.011 | [1] 0.018 | barasertib 0.021 | [2] 0.02 | volasertib -0.027 | [3] 0.026 | [4] -0.001 | [5] -0.019 | saracatinib -0.003 | sotrastaurin -0.013

SEC24A (UniProt O95486)
inactive: vemurafenib 0.035 | [1] 0.01 | barasertib 0.031 | [2] -0.011 | volasertib -0.047 | [3] -0.003 | [4] 0.027 | [5] -0.023 | saracatinib 0.004 | sotrastaurin -0.002

SECISBP2L (UniProt Q93073)
inactive: vemurafenib -0.079 | [1] 0.132 | barasertib -0.141 | [2] 0.089 | volasertib 0.02 | [3] -0.011 | [4] -0.038 | [5] 0.06 | saracatinib -0.002 | sotrastaurin 0.101

SCRN2 (UniProt Q96FV2)
inactive: vemurafenib 0.101 | [1] -0.032 | barasertib -0.007 | [2] 0.038 | volasertib 0.001 | [3] -0.019 | [4] -0.172 | [5] 0.014 | saracatinib 0.08 | sotrastaurin 0.052

SCAMP3 (UniProt O14828)
inactive: vemurafenib -0.018 | [1] -0.017 | barasertib 0.033 | [2] 0.033 | volasertib 0.003 | [3] 0.016 | [4] 0.006 | [5] -0.023 | saracatinib -0.011 | sotrastaurin -0.019

SAE1 (UniProt Q9UBE0)
inactive: vemurafenib 0.002 | [1] -0.013 | barasertib -0.036 | [2] -0.015 | volasertib 0.005 | [3] 0.002 | [4] -0.007 | [5] 0.028 | saracatinib 0.004 | sotrastaurin -0.002

SCRIB (UniProt Q14160)
inactive: vemurafenib 0.023 | [1] -0.007 | barasertib 0.006 | [2] -0.039 | volasertib -0.019 | [3] 0 | [4] -0.049 | [5] -0.027 | saracatinib 0.027 | sotrastaurin 0.011

SDHAF3 (UniProt Q9NRP4)
inactive: vemurafenib -0.095 | [1] -0.001 | barasertib 0.051 | [2] -0.032 | volasertib -0.033 | [3] 0.009 | [4] 0.001 | [5] 0.073 | saracatinib -0.024 | sotrastaurin -0.016

SEPTIN6 (UniProt Q14141)
inactive: vemurafenib 0.035 | [1] 0.016 | barasertib 0.012 | [2] 0.021 | volasertib 0.041 | [3] -0.018 | [4] 0.023 | [5] 0.002 | saracatinib 0.005 | sotrastaurin 0.044

SCO2 (UniProt O43819)
inactive: vemurafenib -0.064 | [1] 0.054 | barasertib 0.019 | [2] -0.075 | volasertib -0.028 | [3] -0.087 | [4] -0.235 | [5] 0.076 | saracatinib -0.046 | sotrastaurin 0.003

SEL1L (UniProt Q9UBV2)
inactive: vemurafenib 0.004 | [1] 0.021 | barasertib 0.028 | [2] 0.057 | volasertib 0.006 | [3] -0.037 | [4] 0.047 | [5] 0.017 | saracatinib -0.007 | sotrastaurin 0.001

SAR1A (UniProt Q9NR31)
inactive: vemurafenib 0.109 | [1] 0 | barasertib 0.07 | [2] 0.03 | volasertib -0.05 | [3] 0.021 | [4] -0.009 | [5] -0.108 | saracatinib 0.025 | sotrastaurin 0.084

Retrieved one by one from above, two records:
SEL1L (UniProt Q9UBV2)
inactive: vemurafenib 0.004 | [1] 0.021 | barasertib 0.028 | [2] 0.057 | volasertib 0.006 | [3] -0.037 | [4] 0.047 | [5] 0.017 | saracatinib -0.007 | sotrastaurin 0.001

SAR1A (UniProt Q9NR31)
inactive: vemurafenib 0.109 | [1] 0 | barasertib 0.07 | [2] 0.03 | volasertib -0.05 | [3] 0.021 | [4] -0.009 | [5] -0.108 | saracatinib 0.025 | sotrastaurin 0.084

The listing continues.

SEC11A (UniProt P67812)
inactive: vemurafenib 0.016 | [1] 0.01 | barasertib 0.048 | [2] -0.018 | volasertib 0.02 | [3] -0.045 | [4] -0.025 | [5] -0.011 | saracatinib 0.036 | sotrastaurin 0.029

SCCPDH (UniProt Q8NBX0)
inactive: vemurafenib -0.013 | [1] -0.054 | barasertib 0.118 | [2] 0.128 | volasertib 0.055 | [3] -0.107 | [4] -0.12 | [5] 0.233 | saracatinib -0.092 | sotrastaurin 0.094

SEMA7A (UniProt O75326)
inactive: vemurafenib 0.001 | [1] -0.082 | barasertib -0.011 | [2] 0.033 | volasertib -0.037 | [3] -0.044 | [4] 0.05 | [5] -0.084 | saracatinib 0.182 | sotrastaurin 0.01

SAP18 isoform 2 (UniProt O00422)
inactive: vemurafenib -0.008 | [1] 0.036 | barasertib 0.048 | [2] -0.018 | volasertib 0.013 | [3] -0.007 | [4] 0.001 | [5] 0.006 | saracatinib 0 | sotrastaurin -0.018
